The results in this text go back to article doi:10.1101/187211.

These are yes or no findings as the source states them, for the method shown. For some assays here: Tags and fused reporters may be left off the sequences shown.

In assay [1] the target is human Gasdermin D C-terminal domain (hGSDMD^Cterm), released from GSDMD^TEV by TEV protease (human) (UniProt P57764). As to the kind of experiment: SEC.
Assay [2] concerns the target T1, His6-SUMO-GSDMD^Nterm, the N-terminal product of TEV cleavage of GSDMD^TEV (human) (UniProt P57764).
T1 sequence: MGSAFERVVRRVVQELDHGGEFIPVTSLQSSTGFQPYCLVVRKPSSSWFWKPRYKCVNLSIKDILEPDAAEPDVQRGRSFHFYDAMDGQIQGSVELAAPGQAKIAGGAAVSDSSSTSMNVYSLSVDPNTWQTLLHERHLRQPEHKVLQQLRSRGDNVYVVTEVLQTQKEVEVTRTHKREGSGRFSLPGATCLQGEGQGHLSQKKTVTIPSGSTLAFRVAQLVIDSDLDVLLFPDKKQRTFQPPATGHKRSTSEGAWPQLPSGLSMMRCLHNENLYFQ
As to the kind of experiment: solubility and orthogonal Ni-affinity chromatography after proteolytic cleavage.

B1: human Gasdermin D C-terminal domain (hGSDMD^Cterm), released from GSDMD^TEV by TEV protease (domain or fragment, UniProt P57764 276-484)
chain: SGVPAEGAFTEDFQGLRAEVETISKELELLDRELCQLLLEGLEGVLRDQLALRALEEALEQGQSLGPVEPLDGPAGAVLECLVLSSGMLVPELAIPVVYLLGALTMLSETQHKLLAEALESQTLLGPLELVGSLLEQSAPWQERSTMSLPPGLLGNSWGEGAPAWVLLDECGLELGEDTPHVCWEPQAQGRMCALYASLALLSGLSQEPH
As for B1, the binding result in assay [1] and in assay [2] was “no binding” in each case.
